Laboratory results reported in PubChem BioAssay AID2685 (National Center for Advancing Translational Sciences (NCATS), 2010).
Some of the results follow. Further columns of the screen follow, without active or inactive calls. Compounds called inactive in the main read-out are mostly missing here. Potencies come from curve fits of mixed quality, noted in brackets.

Assay: qHTS Assay for Lipid Storage Modulators in Drosophila S3 Cells;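 on cell number change: cells counted by Cell Tracker Red CMTPX staining in the red channel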
Details: BODIPY lipid droplet fluorescence, 18-24 h; for cell number change: measured here: cell count max response, cells fed with added oleic acid
Procedure, shortened: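 Drosophila S3 cells loaded with oleic acid (400 uM, as added) and compounds at several concentrations; lipid droplets imaged by 488-nm laser-scanning cytometry, 500–530 nm intensity and object ratio to cell channel. Percent activity normalized to 20 uM Triacsin C.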

[1] = measured here: cell number channel AC50, cells fed with added oleic acid
[2] = measured here: lipid fluorescence (Fed channel) AC50, cells fed with added oleic acid

SMILES	cell number change [%]	AC50 [1]	AC50 [2]
COc1ccc(NC(=O)c2cccc(S(=O)(=O)N3CCOCC3)c2)cn1	48.3		
CC[C@H](C)[C@@H](C(=O)NCCCCCCCCCCC(=O)N1CCN(C(=O)OC(C)(C)C)CC1)n1cc(CCCCN=C(NC(=O)OC(C)(C)C)NC(=O)OC(C)(C)C)nn1		6.51 µM [falling, single point]	29.1 µM [falling, single point]
COc1cc(/C=C/C(=O)OCC(=O)Nc2ccc3c(c2)OCCO3)ccc1OCC#N	-18		0.651 µM [rising, single point]
O=C(NC1CCCCC1)c1cc(C(=O)c2ccccc2Br)c[nH]1	14.7	0.103 µM [rising, full curve, poor fit]	0.103 µM [rising, full curve, poor fit]
O=C(O)c1cc(-c2ccc3c(c2)OCCO3)n[nH]1	18		2.06 µM [rising, partial curve]
CC1CC(=O)N(CC(=O)NCc2ccc(F)cc2)c2ccccc2S1(=O)=O (stereo unspecified)	6.49		14.6 µM [falling, partial curve, poor fit]
O=C(COc1ccc2ccc(=O)oc2c1)N1CC[C@@]2(O)CCCC[C@H]2C1	11		29.1 µM [rising, single point]
Cc1nc(C)n(CC(O)COc2ccc(C(=O)c3ccccc3)cc2)n1 (stereo unspecified)		6.51 µM [rising, single point]	6.51 µM [rising, single point]
COC(=O)c1ccc(/C=C/c2nc3ccccc3c(=O)[nH]2)cc1	16.5		
COc1ccc(OC)c(CCNC(=O)CC2Oc3ccccc3NC2=O)c1 (stereo unspecified)	-13.7		
COc1ccccc1CNC(=O)C1CSC2(C)CCC(=O)N12 (stereo unspecified)	13.2		16.4 µM [rising, partial curve]
CC1(C)CC(=O)C(C=NCCN2CCN(C(=S)Nc3ccc(F)cc3)CC2)=C(O)C1	-4.46	0.103 µM [falling, full curve, poor fit]	
Cc1ccc(N2C(=O)Nc3ccccc3S2(=O)=O)cc1Cl	21.1		0.58 µM [rising, single point]
CCN1c2ccccc2NC2C1C(C(C)=O)C(=O)N2c1ccc(Cl)cc1 (stereo unspecified)	-60.1	29.1 µM [falling, single point]	1.46 µM [falling, full curve]
Cc1cc(C)c2sc(N(CCCN(C)C)C(=O)CN3C(=O)c4ccccc4C3=O)nc2c1		0.146 µM [falling, full curve, poor fit]	0.103 µM [falling, full curve, poor fit]
Cn1c(=O)[nH]c(=O)c2c1nc(NCCCn1ccnc1)n2CCOc1ccccc1	-7.82		
COc1ccc(NC2=NCCC(=O)N2Cc2cccs2)cc1	-22.1		0.82 µM [rising, full curve, poor fit]
N#Cc1c(N)sc2c1CCN(C(=O)OCc1ccccc1)C2		3.26 µM [rising, partial curve]	2.91 µM [rising, partial curve]
CCCCn1c(SCC(=O)Nc2ccccc2C(F)(F)F)nc2ccsc2c1=O	-0.919		6.51 µM [rising, single point]

In a second layout: results already given
CCN1c2ccccc2NC2C1C(C(C)=O)C(=O)N2c1ccc(Cl)cc1 (stereo unspecified)
  cell number change [%]: -60.1; AC50 [1]: 29.1 µM [falling, single point]; AC50 [2]: 1.46 µM [falling, full curve]
Cc1cc(C)c2sc(N(CCCN(C)C)C(=O)CN3C(=O)c4ccccc4C3=O)nc2c1
  AC50 [1]: 0.146 µM [falling, full curve, poor fit]; AC50 [2]: 0.103 µM [falling, full curve, poor fit]

Next compounds follow.

SMILES	cell number change [%]	AC50 [1]	AC50 [2]
CC(=O)c1ccc(NC(=O)C2CCCC2)cc1	16.8		
COc1ccccc1N1CCN(C(=O)c2ccc(Cl)c(S(=O)(=O)N3CCOCC3)c2)CC1	1.52		29.1 µM [falling, single point]
CCOC(=O)CSc1nnc(Cn2nnc(-c3ccccc3)n2)n1C	-17		1.64 µM [falling, full curve]
CCCN1Cc2cccc(C(=O)NCc3ccccc3OC)c2C1=O		0.461 µM [rising, full curve, poor fit]	0.517 µM [rising, full curve]
O=C(Nc1cc(-c2nc3ncccc3o2)ccc1Cl)c1cccs1	-36.6	29.1 µM [falling, single point]	29.1 µM [falling, single point]
CCOC(=O)C(=Cc1ccc(F)cc1)C(=O)OCC	-41.3	8.2 µM [falling, partial curve]	6.51 µM [falling, full curve]
NC(=O)NC(Cc1ccccc1)C(=O)N1CCN(S(=O)(=O)c2ccc(Cl)cc2)CC1 (stereo unspecified)	-24.1	0.82 µM [falling, single point]	
Cc1cc2ccccc2nc1SCC(=O)N1CCCC1	14.5		3.26 µM [rising, single point]
COc1ccc(CCNC(=O)Cn2nnc(C(=O)Nc3ccc(Br)cc3)c2N)cc1OC	-68.3	18.4 µM [falling, single point]	
CCOC(=O)N1CCN(c2c(N3CCN(C(=O)OCC)CC3)c(=O)c2=O)CC1	-21.7		
CCCCn1c(N)c(N(CCC(C)C)C(=O)CSc2nncn2-c2ccccc2)c(=O)[nH]c1=O	-6.27		0.92 µM [falling, partial curve]
Cc1ccc(C)c(CSc2nc3[nH]ncc3c(=O)[nH]2)c1	-5.81	1.64 µM [falling, partial curve]	
O=C1C=C(c2ccccc2)C[C@H](c2cccs2)[C@H]1n1nnc([N+](=O)[O-])n1	-7.15		13 µM [falling, single point]
C=C(C)Cn1c(CCn2c3ccccc3c3ccccc32)n[nH]c1=S	-18.9		
CCOCCn1c(=NC(=O)c2ccc(S(=O)(=O)N3CCOCC3)cc2)sc2cc(S(N)(=O)=O)ccc21	-28.4	2.31 µM [falling, full curve, poor fit]	
CNc1nc(N)c([N+](=O)[O-])c(NC2CCCCC2)n1	-10.6		
Cc1ccc2c(COC(=O)C3=COCCO3)cc(=O)oc2c1	-8.3		14.6 µM [falling, partial curve, poor fit]
Cc1ccccc1OCc1nnc(SCC(=O)Nc2ccc(N3CCOCC3)c(Cl)c2)n1C	8.72	1.3 µM [rising, partial curve]	0.517 µM [rising, full curve]
